Data as given in the supplement of paper PMC6411743.
± gives the standard deviation of the averaged measurements. The list shows a part of the results.

Sequences of proteins named here, by UniProt entry; tags and fusion partners are left off. A change or cut given only in a name is not applied to a line headed by its entry.
UniProt Q06587: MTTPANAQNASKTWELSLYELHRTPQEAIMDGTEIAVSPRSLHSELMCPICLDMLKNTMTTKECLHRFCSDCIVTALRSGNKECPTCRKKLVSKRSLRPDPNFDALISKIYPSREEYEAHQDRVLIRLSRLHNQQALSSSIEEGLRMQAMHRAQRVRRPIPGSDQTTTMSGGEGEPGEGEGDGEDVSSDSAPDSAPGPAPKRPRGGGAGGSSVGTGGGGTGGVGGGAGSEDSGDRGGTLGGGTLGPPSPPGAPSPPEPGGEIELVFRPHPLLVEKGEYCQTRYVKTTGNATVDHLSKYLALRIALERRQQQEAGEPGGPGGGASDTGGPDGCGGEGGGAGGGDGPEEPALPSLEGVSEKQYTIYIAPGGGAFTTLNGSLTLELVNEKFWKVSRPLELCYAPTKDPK
UniProt Q08211, whole entry: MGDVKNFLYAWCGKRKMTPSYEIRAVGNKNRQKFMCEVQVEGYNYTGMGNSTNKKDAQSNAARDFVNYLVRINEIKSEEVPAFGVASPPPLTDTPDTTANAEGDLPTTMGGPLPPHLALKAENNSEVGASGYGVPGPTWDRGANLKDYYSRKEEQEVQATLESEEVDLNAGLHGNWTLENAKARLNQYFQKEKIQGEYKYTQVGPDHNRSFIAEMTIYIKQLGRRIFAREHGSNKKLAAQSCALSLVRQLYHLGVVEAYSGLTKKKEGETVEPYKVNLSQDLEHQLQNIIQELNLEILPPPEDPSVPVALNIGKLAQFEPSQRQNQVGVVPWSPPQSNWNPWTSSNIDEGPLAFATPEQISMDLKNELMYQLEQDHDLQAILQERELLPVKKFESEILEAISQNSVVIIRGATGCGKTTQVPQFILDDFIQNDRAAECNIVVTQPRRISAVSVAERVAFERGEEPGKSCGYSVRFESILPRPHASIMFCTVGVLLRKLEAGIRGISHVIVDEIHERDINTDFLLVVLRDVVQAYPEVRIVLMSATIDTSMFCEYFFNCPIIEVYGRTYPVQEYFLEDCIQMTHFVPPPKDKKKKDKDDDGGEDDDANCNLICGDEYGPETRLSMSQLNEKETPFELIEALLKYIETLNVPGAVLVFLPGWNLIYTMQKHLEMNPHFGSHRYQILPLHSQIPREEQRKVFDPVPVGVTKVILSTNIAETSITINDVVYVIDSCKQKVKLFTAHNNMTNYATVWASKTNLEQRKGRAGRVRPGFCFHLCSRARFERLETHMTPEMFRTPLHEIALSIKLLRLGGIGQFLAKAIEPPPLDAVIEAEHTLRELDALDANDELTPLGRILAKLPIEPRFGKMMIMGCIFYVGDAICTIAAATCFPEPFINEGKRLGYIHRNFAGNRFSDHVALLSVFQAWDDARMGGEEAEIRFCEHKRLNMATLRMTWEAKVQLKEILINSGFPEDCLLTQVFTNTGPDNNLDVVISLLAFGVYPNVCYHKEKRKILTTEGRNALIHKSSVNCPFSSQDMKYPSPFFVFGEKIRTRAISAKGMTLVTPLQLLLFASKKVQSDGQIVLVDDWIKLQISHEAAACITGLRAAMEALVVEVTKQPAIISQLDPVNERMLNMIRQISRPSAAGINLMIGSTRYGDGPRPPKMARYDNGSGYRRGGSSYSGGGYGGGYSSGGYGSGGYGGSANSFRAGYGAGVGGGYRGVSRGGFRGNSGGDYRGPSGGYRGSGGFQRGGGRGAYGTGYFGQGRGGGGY
UniProt Q14181: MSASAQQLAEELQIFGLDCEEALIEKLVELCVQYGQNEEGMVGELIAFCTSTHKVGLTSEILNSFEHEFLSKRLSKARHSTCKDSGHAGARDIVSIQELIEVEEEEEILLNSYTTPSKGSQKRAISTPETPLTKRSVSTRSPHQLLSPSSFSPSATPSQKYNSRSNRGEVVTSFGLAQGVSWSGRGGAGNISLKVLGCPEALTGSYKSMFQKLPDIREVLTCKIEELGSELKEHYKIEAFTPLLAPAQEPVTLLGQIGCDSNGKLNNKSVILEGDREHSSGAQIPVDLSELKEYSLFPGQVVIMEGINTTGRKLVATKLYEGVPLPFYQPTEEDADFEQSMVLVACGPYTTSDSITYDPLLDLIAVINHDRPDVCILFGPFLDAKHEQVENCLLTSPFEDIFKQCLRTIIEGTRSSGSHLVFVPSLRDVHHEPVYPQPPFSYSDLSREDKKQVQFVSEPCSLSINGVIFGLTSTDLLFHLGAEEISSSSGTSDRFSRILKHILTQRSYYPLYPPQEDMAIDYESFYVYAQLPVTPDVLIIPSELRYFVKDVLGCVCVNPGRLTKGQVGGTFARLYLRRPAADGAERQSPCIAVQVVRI
UniProt Q14118: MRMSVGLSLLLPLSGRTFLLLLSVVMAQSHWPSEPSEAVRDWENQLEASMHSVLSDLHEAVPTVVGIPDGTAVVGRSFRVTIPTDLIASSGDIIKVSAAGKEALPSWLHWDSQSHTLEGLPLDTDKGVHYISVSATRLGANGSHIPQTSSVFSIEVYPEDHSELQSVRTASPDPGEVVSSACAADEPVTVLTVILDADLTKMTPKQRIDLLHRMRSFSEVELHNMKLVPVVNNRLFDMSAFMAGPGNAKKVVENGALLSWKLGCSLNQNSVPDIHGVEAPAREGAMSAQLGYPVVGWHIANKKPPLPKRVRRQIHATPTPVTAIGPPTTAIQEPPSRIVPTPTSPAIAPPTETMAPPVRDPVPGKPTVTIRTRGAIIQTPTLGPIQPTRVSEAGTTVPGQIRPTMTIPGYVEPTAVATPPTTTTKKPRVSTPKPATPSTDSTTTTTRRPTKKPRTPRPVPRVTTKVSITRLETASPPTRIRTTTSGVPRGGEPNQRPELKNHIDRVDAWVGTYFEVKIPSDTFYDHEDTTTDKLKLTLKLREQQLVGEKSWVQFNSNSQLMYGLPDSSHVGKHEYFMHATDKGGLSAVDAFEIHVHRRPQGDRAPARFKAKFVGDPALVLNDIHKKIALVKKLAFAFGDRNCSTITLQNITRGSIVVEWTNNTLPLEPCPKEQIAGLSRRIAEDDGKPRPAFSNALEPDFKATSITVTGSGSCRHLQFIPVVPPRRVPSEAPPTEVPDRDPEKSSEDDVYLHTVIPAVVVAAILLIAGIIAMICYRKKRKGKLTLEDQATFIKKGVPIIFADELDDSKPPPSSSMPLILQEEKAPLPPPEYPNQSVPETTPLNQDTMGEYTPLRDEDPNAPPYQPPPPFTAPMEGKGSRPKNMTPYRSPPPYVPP
UniProt Q13283, whole entry, looked up: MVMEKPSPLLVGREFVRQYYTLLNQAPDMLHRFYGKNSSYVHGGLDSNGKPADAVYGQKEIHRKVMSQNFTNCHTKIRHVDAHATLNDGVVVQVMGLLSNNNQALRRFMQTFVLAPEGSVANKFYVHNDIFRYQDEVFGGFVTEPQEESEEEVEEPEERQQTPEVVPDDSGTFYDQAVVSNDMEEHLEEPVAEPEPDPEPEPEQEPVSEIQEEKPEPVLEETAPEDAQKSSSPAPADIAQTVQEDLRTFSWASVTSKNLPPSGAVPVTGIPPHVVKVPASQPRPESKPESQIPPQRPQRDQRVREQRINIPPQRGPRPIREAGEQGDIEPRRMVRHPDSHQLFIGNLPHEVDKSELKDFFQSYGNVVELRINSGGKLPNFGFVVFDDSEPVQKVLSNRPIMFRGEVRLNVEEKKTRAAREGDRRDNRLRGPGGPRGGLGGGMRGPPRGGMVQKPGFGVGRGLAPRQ
UniProt Q14019: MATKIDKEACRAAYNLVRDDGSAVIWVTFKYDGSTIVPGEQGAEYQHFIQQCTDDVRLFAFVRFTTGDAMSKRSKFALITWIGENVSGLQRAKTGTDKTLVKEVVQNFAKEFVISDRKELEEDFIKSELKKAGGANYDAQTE
UniProt Q13371: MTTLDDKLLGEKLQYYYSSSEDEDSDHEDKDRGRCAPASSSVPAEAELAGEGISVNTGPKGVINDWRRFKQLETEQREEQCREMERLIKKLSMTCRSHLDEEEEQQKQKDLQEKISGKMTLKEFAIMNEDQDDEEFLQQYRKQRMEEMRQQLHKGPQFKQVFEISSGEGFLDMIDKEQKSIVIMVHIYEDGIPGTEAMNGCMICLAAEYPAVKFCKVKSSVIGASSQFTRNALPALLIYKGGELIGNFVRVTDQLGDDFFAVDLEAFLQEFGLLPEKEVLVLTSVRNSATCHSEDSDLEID
UniProt Q14008: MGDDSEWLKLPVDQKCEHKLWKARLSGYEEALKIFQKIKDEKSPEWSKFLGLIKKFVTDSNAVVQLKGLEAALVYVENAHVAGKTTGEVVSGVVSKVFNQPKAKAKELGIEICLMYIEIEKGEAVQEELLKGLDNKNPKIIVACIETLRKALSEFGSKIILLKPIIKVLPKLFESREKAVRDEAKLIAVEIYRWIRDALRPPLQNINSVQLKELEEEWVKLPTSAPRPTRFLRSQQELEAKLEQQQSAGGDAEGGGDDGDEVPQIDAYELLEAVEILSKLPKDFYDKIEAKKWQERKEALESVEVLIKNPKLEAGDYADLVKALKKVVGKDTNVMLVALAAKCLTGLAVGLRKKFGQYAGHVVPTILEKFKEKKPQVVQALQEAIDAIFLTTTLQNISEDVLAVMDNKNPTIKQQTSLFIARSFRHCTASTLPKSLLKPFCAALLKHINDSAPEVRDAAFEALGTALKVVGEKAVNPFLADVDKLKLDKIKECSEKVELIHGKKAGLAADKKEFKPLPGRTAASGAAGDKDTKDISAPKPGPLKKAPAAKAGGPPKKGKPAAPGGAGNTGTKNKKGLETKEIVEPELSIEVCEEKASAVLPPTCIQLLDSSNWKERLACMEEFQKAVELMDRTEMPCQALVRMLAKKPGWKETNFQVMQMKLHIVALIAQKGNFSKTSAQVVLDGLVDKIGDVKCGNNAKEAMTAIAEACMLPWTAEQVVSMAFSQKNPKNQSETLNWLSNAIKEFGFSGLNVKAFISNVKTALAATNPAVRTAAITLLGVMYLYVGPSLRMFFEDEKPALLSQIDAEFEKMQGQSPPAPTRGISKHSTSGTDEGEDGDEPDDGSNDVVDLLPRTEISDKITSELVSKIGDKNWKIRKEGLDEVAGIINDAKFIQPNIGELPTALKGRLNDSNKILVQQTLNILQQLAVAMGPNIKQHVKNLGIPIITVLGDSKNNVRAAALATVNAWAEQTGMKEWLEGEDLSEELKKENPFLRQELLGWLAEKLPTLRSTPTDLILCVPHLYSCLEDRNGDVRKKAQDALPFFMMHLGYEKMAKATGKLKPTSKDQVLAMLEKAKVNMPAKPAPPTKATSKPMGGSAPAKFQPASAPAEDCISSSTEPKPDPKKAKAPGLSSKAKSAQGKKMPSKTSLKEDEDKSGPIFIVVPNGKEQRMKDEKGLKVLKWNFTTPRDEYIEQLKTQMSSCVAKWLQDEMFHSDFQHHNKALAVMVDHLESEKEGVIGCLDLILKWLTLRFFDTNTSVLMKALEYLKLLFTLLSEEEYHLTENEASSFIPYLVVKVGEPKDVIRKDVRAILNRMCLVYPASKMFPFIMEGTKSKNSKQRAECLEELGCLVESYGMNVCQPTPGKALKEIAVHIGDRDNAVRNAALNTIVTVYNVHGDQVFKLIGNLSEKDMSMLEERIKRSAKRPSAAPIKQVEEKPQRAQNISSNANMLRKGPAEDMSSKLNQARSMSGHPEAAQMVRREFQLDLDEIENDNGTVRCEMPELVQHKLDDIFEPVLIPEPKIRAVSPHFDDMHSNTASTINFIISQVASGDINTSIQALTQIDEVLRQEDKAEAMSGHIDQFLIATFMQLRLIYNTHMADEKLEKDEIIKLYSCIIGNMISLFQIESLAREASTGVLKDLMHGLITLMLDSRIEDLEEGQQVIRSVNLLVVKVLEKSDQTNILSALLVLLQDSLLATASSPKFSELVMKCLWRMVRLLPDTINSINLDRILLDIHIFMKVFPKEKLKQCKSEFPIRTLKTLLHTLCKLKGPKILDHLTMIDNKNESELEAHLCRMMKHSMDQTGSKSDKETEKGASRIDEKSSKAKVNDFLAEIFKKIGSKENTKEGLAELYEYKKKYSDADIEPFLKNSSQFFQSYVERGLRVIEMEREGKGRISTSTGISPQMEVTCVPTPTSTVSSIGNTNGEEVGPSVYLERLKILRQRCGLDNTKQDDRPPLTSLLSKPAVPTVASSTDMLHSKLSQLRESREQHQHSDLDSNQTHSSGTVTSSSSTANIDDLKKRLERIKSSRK
UniProt Q01196, whole entry: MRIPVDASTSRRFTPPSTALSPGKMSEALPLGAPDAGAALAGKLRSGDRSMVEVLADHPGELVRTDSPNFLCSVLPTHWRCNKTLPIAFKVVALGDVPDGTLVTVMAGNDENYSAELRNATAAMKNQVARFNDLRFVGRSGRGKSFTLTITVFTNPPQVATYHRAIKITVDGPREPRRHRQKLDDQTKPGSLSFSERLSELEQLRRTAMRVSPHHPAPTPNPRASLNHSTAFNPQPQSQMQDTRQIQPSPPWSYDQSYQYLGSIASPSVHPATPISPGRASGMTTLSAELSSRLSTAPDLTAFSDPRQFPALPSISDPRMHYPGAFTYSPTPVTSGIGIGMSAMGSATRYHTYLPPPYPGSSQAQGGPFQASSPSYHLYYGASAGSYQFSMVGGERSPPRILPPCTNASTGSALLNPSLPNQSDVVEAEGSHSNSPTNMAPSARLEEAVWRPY

Compound: Nc1nc2c(ncn2[C@@H]2O[C@H](COP(=O)(O)OP(=O)(O)OP(=O)(O)O)[C@@H](O)[C@H]2O)c(=O)[nH]1 [guanosine triphosphate]
Assay: NP40-soluble protein abundance relative to vehicle (solubility fold change) (ratio); higher = more soluble protein in presence of GTP
Summary of the method: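 In three independent experiments, Jurkat crude lysate made by Dounce homogenisation was treated for 10 min at room temperature and then 3 min at 37 °C with eight concentrations ranging from 0.1 to 10 mM. It was then solubilised with 0.8% NP40 plus benzonase for 60 min at 4 °C and ultracentrifuged. The supernatant was TMT-labelled for LC-MS/MS, and each value is the fold change against the detergent-processed vehicle for the same replicate, using vsn-normalised intensities.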

Target	NP40-soluble protein abundance (concentration: 0.1mM)	NP40-soluble protein abundance (concentration: 0.5mM)	NP40-soluble protein abundance (concentration: 1mM)	NP40-soluble protein abundance (concentration: 2mM)	NP40-soluble protein abundance (concentration: 4mM)	NP40-soluble protein abundance (concentration: 6mM)	NP40-soluble protein abundance (concentration: 8mM)	NP40-soluble protein abundance (concentration: 10mM)
RING1 (UniProt Q06587)	0.932 ± 0.044	0.987 ± 0.035	0.964 ± 0.053	1 ± 0.046	1.05 ± 0.056	1.08 ± 0.054	1.07 ± 0.047	1.1 ± 0.034
DHX9 (UniProt Q08211)	1.03 ± 0.088	1.13 ± 0.16	1.06 ± 0.17	1.2 ± 0.26	1.32 ± 0.28	1.49 ± 0.37	1.52 ± 0.3	1.64 ± 0.33
POLA2 (UniProt Q14181)	1.08 ± 0.053	1.03 ± 0.043	1.04 ± 0.032	0.97 ± 0.058	1.07 ± 0.047	1.01 ± 0.075	1.08 ± 0.024	0.971 ± 0.051
UniProt Q01085-2	0.933 ± 0.1	0.931 ± 0.12	0.875 ± 0.14	0.863 ± 0.096	0.839 ± 0.11	0.853 ± 0.11	0.844 ± 0.15	0.863 ± 0.14
DAG1 (UniProt Q14118)	0.853 ± 0.015	0.867 ± 0.032	0.996 ± 0.041	1.02 ± 0.096	0.934 ± 0.057	0.976 ± 0.073	0.914 ± 0.15	1.06 ± 0.15
EIF2B1 (UniProt Q14232)	0.97 ± 0.013	0.969 ± 0.022	0.945 ± 0.026	0.924 ± 0.06	0.915 ± 0.035	0.925 ± 0.042	0.899 ± 0.015	0.885 ± 0.03
G3BP1 (UniProt Q13283)	1.01 ± 0.069	1.01 ± 0.071	1.04 ± 0.071	1.06 ± 0.095	1.09 ± 0.075	1.09 ± 0.075	1.14 ± 0.088	1.16 ± 0.11
PLS1 (UniProt Q14651)	0.958 ± 0.08	0.956 ± 0.085	0.937 ± 0.095	0.912 ± 0.075	0.903 ± 0.089	0.891 ± 0.058	0.887 ± 0.094	0.888 ± 0.088
UniProt Q13362-2|Q13362-4	0.969 ± 0.03	0.93 ± 0.021	0.9946 ± 0.0062	0.98 ± 0.024	1 ± 0.058	0.939 ± 0.036	1.01 ± 0.039	1 ± 0.028
PPAT (UniProt Q06203)	1.01 ± 0.04	1.03 ± 0.071	0.9747 ± 0.0041	0.987 ± 0.083	0.976 ± 0.057	0.971 ± 0.067	0.904 ± 0.0093	0.903 ± 0.066
COTL1 (UniProt Q14019)	0.897 ± 0.018	0.928 ± 0.045	0.881 ± 0.042	0.862 ± 0.073	0.828 ± 0.073	0.856 ± 0.08	0.809 ± 0.093	0.841 ± 0.11
UniProt Q13131 and related entries	1.03 ± 0.029	1.06 ± 0.072	0.9331 ± 0.0071	0.989 ± 0.077	0.962 ± 0.065	0.941 ± 0.073	0.907 ± 0.036	0.906 ± 0.062
UniProt Q13427 and related entries	0.978 ± 0.092	1.11 ± 0.12	1.18 ± 0.13	1.16 ± 0.098	1.09 ± 0.13	1.12 ± 0.12	1.21 ± 0.18	1.2 ± 0.2
UniProt Q13627 and related entries	1.09 ± 0.028	1.16 ± 0.1	1.08 ± 0.037	1.11 ± 0.058	1.14 ± 0.076	1.16 ± 0.086	1.15 ± 0.078	1.14 ± 0.053
NNT (UniProt Q13423)	0.967 ± 0.011	0.9948 ± 0.0079	0.958 ± 0.01	0.95 ± 0.012	0.92 ± 0.038	0.947 ± 0.02	0.9257 ± 0.0027	0.92 ± 0.028
UniProt Q08AE8 and related entries	1.1 ± 0.18	0.994 ± 0.21	0.961 ± 0.11	0.92 ± 0.098	0.902 ± 0.04	0.862 ± 0.018	0.876 ± 0.11	0.816 ± 0.063
ITPK1 (UniProt Q13572)	0.997 ± 0.085	0.965 ± 0.064	0.904 ± 0.095	0.981 ± 0.077	0.981 ± 0.15	0.943 ± 0.18	0.924 ± 0.13	0.953 ± 0.09
UniProt Q12904	0.984 ± 0.028	1.05 ± 0.051	1.11 ± 0.1	1.15 ± 0.17	1.18 ± 0.25	1.23 ± 0.24	1.24 ± 0.28	1.2 ± 0.26
UniProt Q13325 and related entries	1.06 ± 0.044	1.05 ± 0.061	0.989 ± 0.057	0.978 ± 0.05	0.952 ± 0.086	0.927 ± 0.049	0.906 ± 0.077	0.888 ± 0.13
RBL2 (UniProt Q08999)	1.04 ± 0.013	0.997 ± 0.019	1.05 ± 0.019	1.04 ± 0.037	1.03 ± 0.12	1.03 ± 0.062	1.02 ± 0.09	1.03 ± 0.14
ECH1 (UniProt Q13011)	0.946 ± 0.039	0.997 ± 0.06	0.888 ± 0.053	0.927 ± 0.049	0.914 ± 0.058	0.927 ± 0.044	0.871 ± 0.028	0.904 ± 0.01
CDC20 (UniProt Q12834)	1.01 ± 0.065	1.08 ± 0.13	1.07 ± 0.13	1.03 ± 0.024	1.06 ± 0.11	1.04 ± 0.058	1.08 ± 0.17	1.09 ± 0.18
UBE2V1 (UniProt Q13404)	0.942 ± 0.037	0.896 ± 0.019	0.876 ± 0.031	0.873 ± 0.039	0.861 ± 0.051	0.852 ± 0.038	0.848 ± 0.1	0.849 ± 0.067
PDCL (UniProt Q13371)	1.13 ± 0.12	1.11 ± 0.21	1.15 ± 0.18	1.23 ± 0.23	1.26 ± 0.21	1.21 ± 0.24	1.22 ± 0.23	1.2 ± 0.23
UniProt Q14008 and related entries	0.966 ± 0.041	0.983 ± 0.039	0.976 ± 0.042	0.958 ± 0.04	0.956 ± 0.039	0.968 ± 0.029	0.986 ± 0.056	0.979 ± 0.056
UniProt Q13127 and related entries	0.963 ± 0.041	0.985 ± 0.079	0.975 ± 0.078	0.944 ± 0.082	0.989 ± 0.058	1 ± 0.032	1.11 ± 0.035	1.12 ± 0.087
UniProt Q13951 and related entries	1.01 ± 0.045	1.03 ± 0.058	1.04 ± 0.052	0.982 ± 0.083	0.967 ± 0.06	1.02 ± 0.062	1.06 ± 0.027	1.01 ± 0.039
HMGCS1 (UniProt Q01581)	0.961 ± 0.036	0.979 ± 0.022	0.933 ± 0.044	0.919 ± 0.035	0.894 ± 0.043	0.902 ± 0.033	0.872 ± 0.041	0.879 ± 0.044
UniProt Q01196-11|Q01196-8|Q01196	0.994 ± 0.058	1.03 ± 0.013	1.051 ± 0.0075	1.07 ± 0.054	1.13 ± 0.07	1.15 ± 0.08	1.19 ± 0.092	1.19 ± 0.12
NFX1 (UniProt Q12986)	1.24 ± 0.021	1.125 ± 0.0077	1.21 ± 0.021	1.274 ± 0.0086	1.31 ± 0.041	1.4 ± 0.014	1.46 ± 0.093	1.518 ± 0.0029

Not a retest: an excerpt of the list.
Target	NP40-soluble protein abundance (concentration: 0.1mM)	NP40-soluble protein abundance (concentration: 0.5mM)	NP40-soluble protein abundance (concentration: 1mM)	NP40-soluble protein abundance (concentration: 2mM)	NP40-soluble protein abundance (concentration: 4mM)	NP40-soluble protein abundance (concentration: 6mM)	NP40-soluble protein abundance (concentration: 8mM)	NP40-soluble protein abundance (concentration: 10mM)
PPAT (UniProt Q06203)	1.01 ± 0.04	1.03 ± 0.071	0.9747 ± 0.0041	0.987 ± 0.083	0.976 ± 0.057	0.971 ± 0.067	0.904 ± 0.0093	0.903 ± 0.066
COTL1 (UniProt Q14019)	0.897 ± 0.018	0.928 ± 0.045	0.881 ± 0.042	0.862 ± 0.073	0.828 ± 0.073	0.856 ± 0.08	0.809 ± 0.093	0.841 ± 0.11
UniProt Q13131 and related entries	1.03 ± 0.029	1.06 ± 0.072	0.9331 ± 0.0071	0.989 ± 0.077	0.962 ± 0.065	0.941 ± 0.073	0.907 ± 0.036	0.906 ± 0.062
UniProt Q13427 and related entries	0.978 ± 0.092	1.11 ± 0.12	1.18 ± 0.13	1.16 ± 0.098	1.09 ± 0.13	1.12 ± 0.12	1.21 ± 0.18	1.2 ± 0.2
UniProt Q13627 and related entries	1.09 ± 0.028	1.16 ± 0.1	1.08 ± 0.037	1.11 ± 0.058	1.14 ± 0.076	1.16 ± 0.086	1.15 ± 0.078	1.14 ± 0.053
NNT (UniProt Q13423)	0.967 ± 0.011	0.9948 ± 0.0079	0.958 ± 0.01	0.95 ± 0.012	0.92 ± 0.038	0.947 ± 0.02	0.9257 ± 0.0027	0.92 ± 0.028
